Experimental findings from patent US12180208B1, “Pyrazolo[1,5-c]pyrido[3,4-e]pyrimidines as CK2 inhibitors” (KING FAISAL UNIVERSITY, priority 2024, dated 2024) are described below.

Format in all cases: cell-based
For one test, the system named is PC3 (prostate). The test can be described thus: In vitro cytotoxic activity (MTT) assay, PC3. The conditions noted are these: Homo sapiens, 96 hours exposure, read-out: Cytotoxicity activity IC50 (50% inhibition of cell proliferation). As for the experimental part: (§1) Compounds 1-16 were screened for their in vitro cytotoxic activity utilizing a 3-(4,5-dimethyl-thiazol-2-yl)-2,5-diphenyltetrazolium bromide (MTT) assay against selected cancer human cell lines consisting of PC3 (prostate), HCT116 (colon), A375 (melanoma), H1299 (lung), MIAPaCa-2 (pancreas), HL60 (leukemia), MCF7 (breast), MDA-MB-231 (breast) (T. Mosmann, J. Immunol. Meth., 1983, 65, 55-63). The cells were cultured at 37° C. in RMPI1640 medium supplemented with 10% fetal bovine serum, 50 IU/mL penicillin, and 50 μg/mL streptomycin in a 5% CO2 incubator. All cells were sub-cultured 3 times/week by trypsinisation. Viable cells were seeded and allowed to adhere for 12 hours before a test drug was added in 96-well plates at an initial density of 1.0×10^5 cells/mL. Tumor cell lines were separately exposed to various concentrations of the tested compounds followed by incubation at a temperature of 37° C. during 96 hours inside a medium of fresh RMPI 1640. Cells were subsequently incubated at 37° C. using MTT at 0.5 mg/mL during 4 hours. After removal of supernatant, formazan crystals were dissolved in isopropanol and the optical density was measured at 570 nm. CX-4945 was used as a positive control.

Another test concerns HCT116 (colon). The test can be described thus: In vitro cytotoxic activity (MTT) assay, HCT116. As to conditions: Homo sapiens, HCT-116, 96 hours exposure, read-out: Cytotoxicity activity IC50 (50% inhibition of cell proliferation). As for the experimental part: as §1
The test system of another test is A375 (melanoma). The test can be described thus: In vitro cytotoxic activity (MTT) assay, A375. As to conditions: Homo sapiens, A-375, 96 hours exposure, read-out: Cytotoxicity activity IC50 (50% inhibition of cell proliferation). As for the experimental part: as §1
For a further test, the system named is H1299 (lung). The test can be described thus: In vitro cytotoxic activity (MTT) assay, H1299. As to conditions: Homo sapiens, NCI-H1299, 96 hours exposure, read-out: Cytotoxicity activity IC50 (50% inhibition of cell proliferation). As for the experimental part: as §1
In a further test the test system is MIAPaCa-2 (pancreas). The test can be described thus: In vitro cytotoxic activity (MTT) assay, MIAPaCa-2. As to conditions: Homo sapiens, MIA PaCa-2, 96 hours exposure, read-out: Cytotoxicity activity IC50 (50% inhibition of cell proliferation). The method, then:
as §1

The next test deals with HL60 (leukemia). The test can be described thus: In vitro cytotoxic activity (MTT) assay, HL60. As to conditions: Homo sapiens, HL-60, 96 hours exposure, read-out: Cytotoxicity activity IC50 (50% inhibition of cell proliferation). As for the experimental part:
as §1

The next test has as its system MCF7 (breast). Kind of test: In vitro cytotoxic activity (MTT) assay, MCF7. The conditions noted are these: Homo sapiens, 96 hours exposure, read-out: Cytotoxicity activity IC50 (50% inhibition of cell proliferation). The method, then: as §1
In a further test the test system is MDA-MB-231 (breast). The test can be described thus: In vitro cytotoxic activity (MTT) assay, MDA-MB-231. As to conditions: Homo sapiens, 96 hours exposure, read-out: Cytotoxicity activity IC50 (50% inhibition of cell proliferation). The method, then: as §1

In the case of `O=C(O)c1ccc2c(c1)nc(Nc1cccc(Cl)c1)c1ccncc12` [CX-4945, reference compound], the IC50 in the test with PC3 (prostate) was found to be 2 µM; in the test on HCT116 (colon) it was 2.3 µM; in the test with A375 (melanoma), 4.1 µM; with H1299 (lung) it was 2.3 µM; in the test on MIAPaCa-2 (pancreas), 1 µM; in the test with HL60 (leukemia) it was 3.7 µM. Moreover, the IC50 in the test with MCF7 (breast) amounted to 9.1 µM; in the test on MDA-MB-231 (breast) it was 6.2 µM.
